Measurements: US20060229433A1, “Modified antiviral peptides with increased activity and cell membrane affinity” (priority 2003, published 2006)
Where “and” joins values, the source holds several entries; their conditions need not be identical. Equal entries are not always repeated. Part of at least one peptide drawing is inferred or uncertain, most often the ends.

Assays:
Format in all cases: cell-based
HIV-1 NL 4-3 [1] = test: HIV-1 infection of C8166 cells (syncytia formation, p24 ELISA) with HIV-1 NL 4-3; parameters: key: ++, +, (+), (+)− and − represent decreasing numbers of syncitia formed; ++, +, (+), (+)− and − represent decreasing numbers of syncitia formed; ++, +, (+), (+)− and − represent decreasing numbers of syncitia formed; ++, +, (+), (+)− and − represent decreasing numbers of syncitia formed; ++, +, (+), (+)− and − represent decreasing numbers of syncitia formed; conditions: Table 1
Description: (§1) HIV-1 NL 4-3 isolate (Adachi et al., 1986; Barré-Sinoussi et al., 1983) and highly cytopathic Zairian HIV-1 NDK isolate (Ellrodt et al., 1984) was propagated in permissive CEM cells (Nara et al., 1987). Uninfected CEM and C8166 (Salahuddin et al., 1983) were maintained in RPMI 1640 (R10) with ultraglutamine (cambrex, Vervier, Belgium), penicillin (100 U/ml), streptomycin (100 μg/ml), and 10% heat-inactivated fetal calf serum (Cambrex).
(§2) Samples of 3×10^5/100 μL C8166 cells were preincubated in 96-well microtiter plates in culture medium containing various concentrations of peptide. After a 1 h treatment at 37° C., 100 μl of diluted viral solution of HIV-1 was added. The cells were exposed to the virus for 1 h at 37° C. at a multiplicity of infection of 1000 TCID50 per ml. The cells were washed three times and cultured at 3×10^5/ml of R10 with the treatment in 24-well plates incubated at 37° C. C8166 culture medium was replaced at Day-4 post-infection. The treatment was permanent before virus adsorption, during virus adsorption and after infection. Assays on C8166 cells have been performed at least twice and in duplicate. Toxicity was evaluated by daily cell count and trypan-blue exclusion assay. Infection of C8166 T-cells with HIV-1 was assessed by virus-induced cytopathic effects (syncytia formation) and by quantification of cell free p24 viral protein in the culture supernatants. Measurements of HIV-1 p24^gag concentration in the culture supernatants were achieved by ELISA (ALLIANCE® HIV-1 p24 kit, Perkin Elmer, life sciences, USA).

HIV-1 NL 4-3 [2] = test: as above; parameters: key: ++, +, (+), (+)− and − represent decreasing numbers of syncitia formed.; ++, +, (+), (+)− and − represent decreasing numbers of syncitia formed.; ++, +, (+), (+)− and − represent decreasing numbers of syncitia formed.; ++, +, (+), (+)− and − represent decreasing numbers of syncitia formed.; ++, +, (+), (+)− and − represent decreasing numbers of syncitia formed; conditions: Table 2
Description: as §1, §2

HIV-1 NL 4-3 [3] = test: as above
Description: as §1, §2

HIV-1 NL 4-3 [4] = test: Infection of human peripheral blood lymphocytes (PBL) with NL 4-3 strain, p24 ELISA
Description: Peripheral blood lymphocytes from an HIV-1 negative donor were grown as described earlier, maintained in RPMI 1640 with ultraglutamine, supplemented with IL2 (20 μg/ml), penicillin (100 U/ml), streptomycin (100 μg/ml), and 10% heat-inactivated fetal calf serum. Cells were stimulated three days in the medium supplemented with phytohemagglutinin (20 U/ml PHA P, DIFCO, Detroit Mich.).
Samples of 10^6/100 μL PBL cells were preincubated in 96-well microtiter plates in culture medium containing various concentrations of peptides. After a 1 h treatment at 37° C., 100 μl of diluted viral solution of HIV-1 was added. The cells were exposed to the virus for 1 h at 37° C. at a multiplicity of infection of 1000 TCID50 per ml. The cells were washed three times and cultured at […] of medium with the treatment in 24-well plates incubated at 37° in culture medium with the peptides in 5% CO2. The treatment was permanent before virus adsorption, during virus adsorption and after infection. The PBL culture medium was replaced every 3-4 days during three weeks always in the presence of peptide. The cell viability was assessed by cell counts and trypan-blue exclusion assay. The viral production in the culture supernatant was quantified by p24 ELISA test, as described earlier. All the experiments have been done in blind-tests. Tests have been done in duplicate.

Which “Day 4 syncitia formed” value (HIV-1 NL 4-3 [1]; 0.5 μM) does the source give for `C[C@H](NC(=O)[C@H](CCCNC(=N)N)NC(=O)CNC(=O)[C@@H]1CCCN1C(=O)CN)C(=O)N[C@@H](Cc1ccccc1)C(=O)NCCCC[C@H](NC(=O)[C@H](Cc1ccccc1)NC(=O)[C@H](C)NC(=O)[C@H](CCCNC(=N)N)NC(=O)CNC(=O)[C@@H]1CCCN1C(=O)CN)C(=O)NCCCC[C@H](NC(=O)[C@H](CCCCNC(=O)[C@H](Cc1ccccc1)NC(=O)[C@H](C)NC(=O)[C@H](CCCNC(=N)N)NC(=O)CNC(=O)[C@@H]1CCCN1C(=O)CN)NC(=O)[C@H](Cc1ccccc1)NC(=O)[C@H](C)NC(=O)[C@H](CCCNC(=N)N)NC(=O)CNC(=O)[C@@H]1CCCN1C(=O)CN)C(=O)NCCCC[C@H](NC(=O)[C@H](CCCCNC(=O)[C@H](CCCCNC(=O)[C@H](Cc1ccccc1)NC(=O)[C@H](C)NC(=O)[C@H](CCCNC(=N)N)NC(=O)CNC(=O)[C@@H]1CCCN1C(=O)CN)NC(=O)[C@H](Cc1ccccc1)NC(=O)[C@H](C)NC(=O)[C@H](CCCNC(=N)N)NC(=O)CNC(=O)[C@@H]1CCCN1C(=O)CN)NC(=O)[C@H](CCCCNC(=O)[C@H](Cc1ccccc1)NC(=O)[C@H](C)NC(=O)[C@H](CCCNC(=N)N)NC(=O)CNC(=O)[C@@H]1CCCN1C(=O)CN)NC(=O)[C@H](Cc1ccccc1)NC(=O)[C@H](C)NC(=O)[C@H](CCCNC(=N)N)NC(=O)CNC(=O)[C@@H]1CCCN1C(=O)CN)C(=O)NCCCCC(=O)O` [S5, SPC3-(δ-aminovaleric acid)] here?
Its value is “−”.

What about the “Day 5 syncitia formed” value (HIV-1 NL 4-3 [1]; 0.5 μM) of the same compound?
The value was “−”.

And the “Day 6 syncitia formed” value (HIV-1 NL 4-3 [1]; 0.5 μM)?
The value was “−”.

And the “Day 7 syncitia formed” value (HIV-1 NL 4-3 [1]; 0.5 μM)?
The value was “− and +”.

And the “Day 4 syncitia formed” value (HIV-1 NL 4-3 [1]; 1 μM)?
Its value is “−”.

And the “Day 5 syncitia formed” value (HIV-1 NL 4-3 [1]; 1 μM)?
The value was “−”.

What about the “Day 6 syncitia formed” value (HIV-1 NL 4-3 [1]; 1 μM) of the same compound?
The value was “−”.

What about the “Day 7 syncitia formed” value (HIV-1 NL 4-3 [1]; 1 μM) of the same compound?
Its value is “− and +”.

And the “Day 4 syncitia formed” value (HIV-1 NL 4-3 [1]; 2 μM)?
Its value is “−”.

And the “Day 5 syncitia formed” value (HIV-1 NL 4-3 [1]; 2 μM)?
The value was “−”.

And the “Day 6 syncitia formed” value (HIV-1 NL 4-3 [1]; 2 μM)?
Its value is “−”.

What about the “Day 7 syncitia formed” value (HIV-1 NL 4-3 [1]; 2 μM) of the same compound?
The value was “−”.

What about the “Day 4 syncitia formed” value (HIV-1 NL 4-3 [1]; 5 μM) of the same compound?
Its value is “−”.

What about the “Day 5 syncitia formed” value (HIV-1 NL 4-3 [1]; 5 μM) of the same compound?
The value was “−”.

And the “Day 6 syncitia formed” value (HIV-1 NL 4-3 [1]; 5 μM)?
Its value is “−”.

And the “Day 7 syncitia formed” value (HIV-1 NL 4-3 [1]; 5 μM)?
The value was “− and +”.

And the “Day 4 syncitia formed” value (HIV-1 NL 4-3 [1]; 10 μM)?
The value was “−”.

And the “Day 5 syncitia formed” value (HIV-1 NL 4-3 [1]; 10 μM)?
Its value is “−”.

And the “Day 6 syncitia formed” value (HIV-1 NL 4-3 [1]; 10 μM)?
The value was “−”.

And the “Day 7 syncitia formed” value (HIV-1 NL 4-3 [1]; 10 μM)?
The value was “−”.

And the “Day 4 syncitia formed” value (HIV-1 NL 4-3 [2]; 0.05 μM)?
Its value is “(+)”.

And the “Day 5 syncitia formed” value (HIV-1 NL 4-3 [2]; 0.05 μM)?
The value was “+”.

What about the “Day 6 syncitia formed” value (HIV-1 NL 4-3 [2]; 0.05 μM) of the same compound?
Its value is “++”.

And the “Day 7 syncitia formed” value (HIV-1 NL 4-3 [2]; 0.05 μM)?
The value was “++”.

And the “Day 4 syncitia formed” value (HIV-1 NL 4-3 [2]; 0.1 μM)?
Its value is “(+)”.

What about the “Day 5 syncitia formed” value (HIV-1 NL 4-3 [2]; 0.1 μM) of the same compound?
Its value is “+”.

What about the “Day 6 syncitia formed” value (HIV-1 NL 4-3 [2]; 0.1 μM) of the same compound?
Its value is “++”.

And the “Day 7 syncitia formed” value (HIV-1 NL 4-3 [2]; 0.1 μM)?
The value was “++”.

And the “Day 4 syncitia formed” value (HIV-1 NL 4-3 [2]; 0.5 μM)?
Its value is “−”.

And the “Day 5 syncitia formed” value (HIV-1 NL 4-3 [2]; 0.5 μM)?
The value was “−”.

What about the “Day 6 syncitia formed” value (HIV-1 NL 4-3 [2]; 0.5 μM) of the same compound?
Its value is “(+) and −”.

What about the “Day 7 syncitia formed” value (HIV-1 NL 4-3 [2]; 0.5 μM) of the same compound?
The value was “+”.

What about the “Day 4 syncitia formed” value (HIV-1 NL 4-3 [2]; 1 μM) of the same compound?
The value was “−”.

What about the “Day 5 syncitia formed” value (HIV-1 NL 4-3 [2]; 1 μM) of the same compound?
Its value is “−”.

What about the “Day 6 syncitia formed” value (HIV-1 NL 4-3 [2]; 1 μM) of the same compound?
The value was “−”.

What about the “Day 7 syncitia formed” value (HIV-1 NL 4-3 [2]; 1 μM) of the same compound?
The value was “− and (+)”.

And the “P 24” value (HIV-1 NL 4-3 [3]; Day 4, 0.05 μM, Table 2)?
The value was 66 pg/mL and 33 pg/mL.

And the “P 24” value (HIV-1 NL 4-3 [3]; Day 4, 0.5 μM, Table 1)?
The value was “NEG”.

And the “P 24” value (HIV-1 NL 4-3 [3]; Day 4, 1 μM, Table 1)?
The value was “NEG”.

What about the “P 24” value (HIV-1 NL 4-3 [3]; Day 4, 2 μM, Table 1) of the same compound?
Its value is “NEG”.

What about the “P 24” value (HIV-1 NL 4-3 [3]; Day 4, 5 μM, Table 1) of the same compound?
Its value is “NEG”.

And the “P 24” value (HIV-1 NL 4-3 [3]; Day 4, 10 μM, Table 1)?
The value was “NEG”.

What about the “P 24” value (HIV-1 NL 4-3 [3]; Day 7, 0.05 μM, Table 2) of the same compound?
The value was 3185 pg/mL and 2159 pg/mL.

And the “P 24” value (HIV-1 NL 4-3 [3]; Day 7, 0.5 μM, Table 2)?
Its value is 39 pg/mL and 72 pg/mL.

And the “P 24” value (HIV-1 NL 4-3 [3]; Day 7, 5 μM, Table 1)?
The value was 66 pg/mL and 71 pg/mL.

And the “P 24” value (HIV-1 NL 4-3 [3]; Day 7, 10 μM, Table 1)?
The value was 81 pg/mL and 134 pg/mL.

And the IC100 (HIV-1 NL 4-3 [4]; on PBL)?
Its IC100 is 0.01 µM.

And the IC100 (HIV-1 NL 4-3 [4]; text b43 on PBL results)?
The IC100 was 0.5 µM.
